According to the supplement of paper PMC12425257:
± gives the standard deviation of the averaged measurements. This is one part of the list.

Tested on: Madurella mycetomatis MM55
Assay: metabolic activity (growth) relative to DMSO growth control; higher = more fungal growth

Structure (SMILES) | metabolic activity (1 µM) | metabolic activity (2 µM) | metabolic activity (10 µM)
CNC(=O)c1ccc2c(c1)ncn2-c1ccc(CC(=O)OC(C)(C)C)cc1 | 84.9 ± 6.7% | 76.1 ± 18% | 77.6 ± 18%
Fc1ccc(CNc2ccc3ncc(-c4cccc(OC(F)(F)F)c4)n3n2)cc1 | 112 ± 24% | 113 ± 2.1% | 163 ± 14%
Cn1cc(-c2ccc3[nH]nc(N)c3c2)cn1 | 91.4 ± 9.2% | 106 ± 12% | 108 ± 17%
O=C(Nc1cccc(-c2nn3ncccc3c2-c2ccnc(Nc3cccnc3)n2)c1)c1c(F)cccc1F | 87.9 ± 6.8% | 76.82 ± 0.25% | 97.3 ± 9.8%
CCc1c(-c2nonc2N)nc2c(C#Cc3ccccn3)ccc(N3C[C@H](N)[C@@H](O)C3)n12 | 88.4 ± 7.5% | 129 ± 18% | 89.7 ± 5.3%
CNc1nc(-c2ccc3c(N)n[nH]c3c2)cc(N2C[C@@H](C(=O)NC3CCCCC3)CC[C@H]2C)n1 | 98.3 ± 22% | 72.8 ± 5.5% | 76.4 ± 6.9%
CC[C@@H](CO)Nc1ccnc(Nc2cccc(NC(=O)C(C)C)c2)n1 | 97.9 ± 2.8% | 87.8 ± 3.9% | 117 ± 2.9%
COc1cc2ncnc(Nc3cccc(Cl)c3F)c2cc1O[C@H]1CC[C@H]([C@@H]2NCCNC2=O)CC1 | 118 ± 2.7% | 131.6 ± 1.2% | 106 ± 21%
O=C(Nc1n[nH]c2cc(-c3ccsc3)ccc12)C1CC1 | 114 ± 8.7% | 108 ± 5.6% | 130 ± 31%
CNc1nc(-c2ccc3c(N)n[nH]c3c2)cc(N2C[C@@H](C(=O)Nc3ccccc3)CC[C@H]2C)n1 | 88.7 ± 18% | 90 ± 1.4% | 69.2 ± 0.74%
NS(=O)(=O)c1cccc(-c2ccc3nccc(-c4cccc(S(N)(=O)=O)c4)c3c2)c1 | 95.7 ± 8.8% | 81.3 ± 6.7% | 85.1 ± 23%
Cl.O=C1Nc2ccc(-c3cccnc3)cc2C1=Cc1cc(Br)c(O)c(Br)c1 | 93 ± 3.9% | 95 ± 44% | 99.7 ± 13%

Taken from the entries so far, two compounds:
Structure (SMILES) | metabolic activity (1 µM) | metabolic activity (2 µM) | metabolic activity (10 µM)
CNc1nc(-c2ccc3c(N)n[nH]c3c2)cc(N2C[C@@H](C(=O)Nc3ccccc3)CC[C@H]2C)n1 | 88.7 ± 18% | 90 ± 1.4% | 69.2 ± 0.74%
NS(=O)(=O)c1cccc(-c2ccc3nccc(-c4cccc(S(N)(=O)=O)c4)c3c2)c1 | 95.7 ± 8.8% | 81.3 ± 6.7% | 85.1 ± 23%
